Source: publication PMC6312924
No constants are given. Whether binding was seen depends on the method and setting. Binding seen in cells or lysates may run through a third protein. Some results given as binding are weak or reduced against the parent protein; the word gives no strength. Tags and fused reporters may be left off the sequences shown.

Molecular target: T1, myc-tagged full length cyclin G-associated kinase (GAK) wildtype (mouse) (UniProt Q3UIZ0)
T1 sequence: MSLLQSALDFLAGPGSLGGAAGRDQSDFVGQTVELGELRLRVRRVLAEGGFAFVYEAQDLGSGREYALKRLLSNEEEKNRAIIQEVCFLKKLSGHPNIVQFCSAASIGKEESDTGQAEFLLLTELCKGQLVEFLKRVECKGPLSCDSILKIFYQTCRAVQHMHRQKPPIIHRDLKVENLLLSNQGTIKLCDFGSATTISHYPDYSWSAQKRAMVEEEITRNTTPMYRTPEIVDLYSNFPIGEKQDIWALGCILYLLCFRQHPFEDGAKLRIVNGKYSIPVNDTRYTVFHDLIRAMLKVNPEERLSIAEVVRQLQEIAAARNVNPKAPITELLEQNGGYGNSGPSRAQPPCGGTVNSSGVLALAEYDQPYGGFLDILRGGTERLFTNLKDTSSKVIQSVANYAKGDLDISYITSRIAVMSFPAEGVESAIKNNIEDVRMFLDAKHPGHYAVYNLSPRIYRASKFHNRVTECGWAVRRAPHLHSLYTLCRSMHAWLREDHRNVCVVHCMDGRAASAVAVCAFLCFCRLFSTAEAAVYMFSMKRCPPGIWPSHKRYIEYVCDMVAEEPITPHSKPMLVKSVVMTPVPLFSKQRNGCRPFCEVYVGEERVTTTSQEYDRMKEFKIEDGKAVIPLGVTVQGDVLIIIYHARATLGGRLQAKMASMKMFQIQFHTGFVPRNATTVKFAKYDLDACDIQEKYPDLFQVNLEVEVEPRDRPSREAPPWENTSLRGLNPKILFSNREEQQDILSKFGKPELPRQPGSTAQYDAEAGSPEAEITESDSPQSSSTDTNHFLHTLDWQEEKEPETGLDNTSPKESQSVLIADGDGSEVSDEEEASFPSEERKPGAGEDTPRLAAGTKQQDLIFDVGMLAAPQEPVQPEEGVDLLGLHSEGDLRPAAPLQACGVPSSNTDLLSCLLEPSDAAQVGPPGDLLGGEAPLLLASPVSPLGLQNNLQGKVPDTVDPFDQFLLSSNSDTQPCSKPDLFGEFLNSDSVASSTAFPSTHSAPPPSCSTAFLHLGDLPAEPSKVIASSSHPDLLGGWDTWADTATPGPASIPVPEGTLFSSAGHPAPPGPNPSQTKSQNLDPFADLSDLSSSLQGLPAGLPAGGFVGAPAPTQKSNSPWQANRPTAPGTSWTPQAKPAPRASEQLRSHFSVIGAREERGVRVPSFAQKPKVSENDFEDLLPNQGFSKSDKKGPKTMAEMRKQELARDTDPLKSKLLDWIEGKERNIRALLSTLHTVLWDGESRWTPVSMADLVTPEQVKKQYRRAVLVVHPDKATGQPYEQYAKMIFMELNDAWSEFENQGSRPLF
Experiment: co-IP; HEK 293T cells co-transfected with myc-tagged FL GAK and the HA-tagged partner; GAK immunoprecipitated (GAK antibody), partner detected by blot; HA- and myc-tagged pRK5 vectors as IP controls

binding: binds
B1: HA-tagged Sipa1L1 Act1 domain (domain or fragment, UniProt Q8C0T5 1-627)
chain: MTSLKRSQTERPVTADRASVVSTDGAPKVHTDDFYMRRFRSQNGSLGSSVMAAVGPPRSEGPHHITSTPGVPKMGVRARIADWPPRKENVKESSRSSQEIETSSCLESLSSKGSPVSQGSSVSLNSNDSAMLKSIQNTLKNKTGPAESMDSRFLMPEAYPSSPRKALRRIRQRSNSDITISELDVDSFDECISPTYKSGPSLHREYGSTSSIDKQGTSGDSFFDLLKGYKDDRSDRGPTPTKLSDFLITGGGKGSGFSLDVIDGPISQRENLRLFKEREKPLKRRSKSETGDSSIFRKLRNAKGEELGKSSDLEDNRSEDSVRPWTCPKCFAHYDVQSILFDLNEAIMNRHNVIKRRNTTTGASAAAVASLVSGPLSHSASFSSPMGSTEDLNSKGSLGMDQGDDKSNELVMSCPYFRNEIGGEGERKISLSKSNSGSFSGCESTSFESALSSHCTNAGVAVLEVPKESLMLHLDRVKRYTVEHVDLGAYYYRKFFYQKEHWNYFGADENLGPVAVSIRREKPEDMKENGSPYNYRIIFRTSELMTLRGSVLEDAIPSTAKHSTARGLPLKEVLEHVIPELNVQCLRLAFNTPKVTEQLMKLDEQGLNYQQKVGIMYCKAGQSTEEE
